Laboratory results reported in patent US20230212294A1.

How the values were obtained:
[1] = biological target: B7-H3 on CHOK cells overexpressing B7-H3; experiment: flow cytometry on CHO cells that artificially express B7-H3
[2] = biological target: monkey B7-H3-his (monkey); experiment: ELISA, monkey B7-H3-his coated at 2 µg/mL

binding [1] | binding [2] | Binder
binds | – | IL-P6-D06 (antibody, V domains shown) VH: QVQLQQSGPELVRPGVSVKISCKGSGYTFTDYAIHWVKQSHAKSLEWIGVINTYSGNTNYNQKFKGRATMTVDKSSSTAYMELARLTSEDSAIYFCARGVTYGSGYPYWYFDVWGAGTTVTVSS VL: DIVMTQSQKFMSTSVGDRVSVTCKASQNVGTNVAWYQQKPGQSPKALIYSASYRYSGVPDRFTGSGSGTDFTLTISNVQSEDLAEYFCQQYNSYPYTFGGGTKLEIK
binds | – | IL-P5-B01 (antibody, V domains shown) VH: EVQLQESGPSLVKPSQTLSLTCSVTGDSITSGSWNWIRKFPGNKLEYMGYISYSGSIYYNPSLKSRISITRDTSKNQYYLQLNSVTTEDTATYYCARGNPAWFAYWGQGTLVTVSA VL: DIVMTQSQKFMSTSVGDRVSVTCKASQNVGTNVAWYQQKPGQSPKALIYSASYRYSGVPDRFTGSGSGTDFTLTISNVQSEDLAEYFCQQYNSYPYTFGGGTKLEIK
binds | no binding | IL-P7-A06 (antibody, V domains shown) VH: QVQLQQSGPEVVRPGVSVKISCKGSGYTFTDYAMHWVKQSHAKSLEWIGIINTYNGNTNYNQKFKGKATMTVDKSSSTAYMEFARLTSEDSAIYYCARSRGPWDRYFDVWGAGTTVTVSS VL: DIVMTQSQKFMSTSVGDRVSVTCKASQNVGTAVAWYQQKPGQSPKLLIYSASNRYTGVPDRFTGSGSGTDFTLTISNMQSEDLADYFCQQYSSYPFTFGSGTKLEIK

These are yes or no findings as the source states them, for the method shown. For some of these results: Binding can be weak; no strength is given.
